The target of assay [1] is SOX2 (endogenous, E14 mouse embryonic stem cells) (mouse (endogenous in E14 ESCs)) (UniProt P48432). The assay can be described thus: co-IP; endogenous SOX2 immunoprecipitated with anti-SOX2 antibody (IgG as control) from E14 ESC whole cell lysate, Protein A/G magnetic beads, 4 °C, 150 mM NaCl, Western blot. For orientation: Immunoblotting shows a protein as a band on a membrane.

The chains behind the UniProt entries cited, without tags or fusion partners. Where a name states a change or a piece, a line headed by the entry shows the natural chain unless it says otherwise.
UniProt P48432: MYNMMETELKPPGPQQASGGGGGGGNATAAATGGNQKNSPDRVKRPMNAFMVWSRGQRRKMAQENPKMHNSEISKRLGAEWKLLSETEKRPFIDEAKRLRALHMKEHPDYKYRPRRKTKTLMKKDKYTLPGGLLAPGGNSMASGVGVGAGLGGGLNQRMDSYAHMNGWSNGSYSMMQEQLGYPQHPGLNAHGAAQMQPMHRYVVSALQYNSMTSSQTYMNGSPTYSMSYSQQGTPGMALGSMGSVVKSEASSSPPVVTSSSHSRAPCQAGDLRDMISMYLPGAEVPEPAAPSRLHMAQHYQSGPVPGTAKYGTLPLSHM
UniProt Q9QWV9: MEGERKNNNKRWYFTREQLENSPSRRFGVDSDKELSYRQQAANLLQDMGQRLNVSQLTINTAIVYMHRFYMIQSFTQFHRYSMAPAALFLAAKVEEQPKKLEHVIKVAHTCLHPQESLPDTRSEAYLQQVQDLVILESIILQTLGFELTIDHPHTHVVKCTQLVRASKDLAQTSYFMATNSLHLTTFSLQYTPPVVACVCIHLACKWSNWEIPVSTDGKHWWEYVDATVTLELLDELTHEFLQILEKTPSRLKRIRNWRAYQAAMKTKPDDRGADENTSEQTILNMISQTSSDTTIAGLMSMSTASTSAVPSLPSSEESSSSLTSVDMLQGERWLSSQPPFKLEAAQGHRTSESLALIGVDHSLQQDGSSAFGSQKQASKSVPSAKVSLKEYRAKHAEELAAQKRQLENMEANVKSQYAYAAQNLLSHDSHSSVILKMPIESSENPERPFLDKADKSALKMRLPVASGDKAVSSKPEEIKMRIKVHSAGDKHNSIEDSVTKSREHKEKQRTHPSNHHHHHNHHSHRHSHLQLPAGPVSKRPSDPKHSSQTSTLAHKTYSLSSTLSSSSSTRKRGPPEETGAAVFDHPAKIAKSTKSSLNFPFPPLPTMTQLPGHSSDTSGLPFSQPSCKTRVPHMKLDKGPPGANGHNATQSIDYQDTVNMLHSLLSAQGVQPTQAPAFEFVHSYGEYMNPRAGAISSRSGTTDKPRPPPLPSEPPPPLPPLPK

For assay [2], the target named is His-tagged hnRNPK (mouse) (UniProt P61979). The assay can be described thus: pull-down; His-hnRNPK (or His) coupled with Ni-NTA agarose beads, incubated with E. coli lysates expressing GST-SOX2 or its derivates; Western blot with anti-His and anti-GST; only the target purified.
Assay [3] concerns the target Flag-tagged CYCLINT1 (expressed in E. coli) (mouse) (UniProt Q9QWV9). Put plainly: co-IP; whole cell lysates of E. coli expressing HA-SOX2 and/or Flag-CYCLINT1 immunoprecipitated with anti-Flag antibody; blotted with anti-HA and anti-Flag.

Results are given in words; binding and its absence hold for the method and conditions named. Binding seen in cells or lysates may run through a third protein. Some binding calls cover weakened binding; strength is not graded here.

Regarding “CYCLINT1 (endogenous, E14 mouse embryonic stem cells) (from UniProt Q9QWV9 1-724)”, in assay [1], the binding result was “binds”. For “GST-tagged SOX2-HMG (40–119, containing the HMG domain) (from UniProt P48432 40-119) (domain or fragment)”, in assay [2], the binding entry was “binds”. Take “HA-tagged SOX2 (expressed in E. coli) (from UniProt P48432 1-319)”: the binding entry in assay [3] is listed as “binds”. “glutathione-S-transferase (GST)-tagged SOX2 (from UniProt P48432 1-319)”: the binding entry in assay [2] is recorded as “binds”. For the substance “heterogeneous nuclear ribonucleoprotein K (endogenous, E14 mouse embryonic stem cells) (from UniProt P61979 1-463)”, in assay [1], the binding entry is on record as “binds”.

(Values after PMC11331657.)
